Assay results: patent US20210139893

Target: T1, RNase H (Escherichia coli) (UniProt P0A7Y4)
T1 sequence (looked up, limits assumed): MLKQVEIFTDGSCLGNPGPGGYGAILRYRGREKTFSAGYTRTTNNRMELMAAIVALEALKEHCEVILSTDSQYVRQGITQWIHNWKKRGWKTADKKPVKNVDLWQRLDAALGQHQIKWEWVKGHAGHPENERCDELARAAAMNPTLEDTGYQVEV
Test: enzyme reaction in vitro
Details: [strand 1: 1 (5' F label)], purified recombinant protein, label: 5' 6-FAM on RNA, DNA:RNA hybrid, letters built from the parent sequence and the stated change

ACUGUGCGUGGAAAGCGUAG / ACGCTTTCCACGCACA [F-rA-20 / dA16i heteroduplex]
activity on this sequence (conventional ASO control, 1 mM MgCl2, 20 mM KCl, 37 C): active

ACUGUGCGUGGAAAGCGUAG / CTACGCTTTCCACGCACAGT [F-rA-20 / d20A heteroduplex]
activity on this sequence (RNA strand degraded, 20 mM Tris-HCl pH 7.5, 20 mM KCl, 1 mM MgCl2, 37 C, 1 h): active

ACUGUGCGUGGAAAGCGUAG / CTACGCTTTCCACGCACAGTTTGGGTGGGTGGGTGGGTT [F-rA-20 / dG4-20A heteroduplex]
activity on this sequence (G4 at 3' end compatible with RNase H, 1 mM MgCl2, 20 mM KCl, 37 C, variant of F-rA-20 / d20A heteroduplex): active

ACUGUGCGUGGAAAGCGUAG / TTGGGTGGGTGGGTGGGTTACGCTTTCCACGCACATTGGGTGGGTGGGTGGGT [F-rA-20 / dG4TT-A16i-TTG4 heteroduplex]
activity on this sequence (G4 at both ends compatible with RNase H, 1 mM MgCl2, 20 mM KCl, 37 C, variant of F-rA-20 / dA16i heteroduplex): active

ACUGUGCGUGGAAAGCGUAG / TTGGGTGGGTGGGTGGGTTCTACGCTTTCCACGCACAGT [F-rA-20 / dA20-G4 heteroduplex]
activity on this sequence (G4 at 5' end compatible with RNase H, 1 mM MgCl2, 20 mM KCl, 37 C, variant of F-rA-20 / d20A heteroduplex): active

Where a protein sequence is shown, tags need not be part of it.
